# Measurements from paper PMC5996148.
# Chains of the proteins cited; added tags and fusions are not shown. Lines headed by an entry give the natural chain unless they say otherwise; changes in a name come on top.
# UniProt Q86X40: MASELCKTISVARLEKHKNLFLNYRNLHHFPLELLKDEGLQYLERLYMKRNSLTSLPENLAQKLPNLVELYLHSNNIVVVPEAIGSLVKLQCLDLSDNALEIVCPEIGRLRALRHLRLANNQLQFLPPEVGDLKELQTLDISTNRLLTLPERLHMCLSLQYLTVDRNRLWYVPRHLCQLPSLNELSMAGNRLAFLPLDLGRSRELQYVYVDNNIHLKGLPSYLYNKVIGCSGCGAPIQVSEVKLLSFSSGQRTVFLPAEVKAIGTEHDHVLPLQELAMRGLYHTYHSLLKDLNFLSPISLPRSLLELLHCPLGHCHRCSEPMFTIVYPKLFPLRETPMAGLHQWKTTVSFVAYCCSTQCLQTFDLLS
# UniProt Q3MHD2: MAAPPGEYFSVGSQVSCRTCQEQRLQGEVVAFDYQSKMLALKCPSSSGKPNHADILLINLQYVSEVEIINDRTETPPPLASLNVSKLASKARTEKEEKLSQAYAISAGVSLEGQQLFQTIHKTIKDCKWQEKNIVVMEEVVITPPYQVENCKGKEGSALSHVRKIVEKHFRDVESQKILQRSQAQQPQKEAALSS
# Where “and” joins values, the source holds several entries; their conditions need not be identical. Equal values may be shown once. This is one part of the list. For some assays here: The exact form of the protein is not confirmed.
# Experiments:
# Experiment in all cases: protein microarray (ProtoArray v5.0), streptavidin-Alexa Fluor 647
# Conditions in all cases: 3'-biotin; 20 mM Tris (pH 7.5), 5 mM MgCl2, 100 mM KCl, 0.1% Tween-20, A/T-rich and random oligonucleotide blockers; temperature not stated; high values mean tight binding
# LRBA (human) = system: LRBA (human)
# LRP10 (human) = system: LRP10 (human)
# LRRC1 (human) = system: LRRC1 (human)
# LRRC14 (human) = system: LRRC14 (human)
# LRRC28 = LRRC28 (UniProt Q86X40)
# LRRC32 (human) = system: LRRC32 (human)
# LRRC3B (human) = system: LRRC3B (human)
# LRRIQ2 (human) = system: LRRIQ2 (human)
# LSM12 = LSM12 (UniProt Q3MHD2)
# LSM14B (human) = system: LSM14B (human)
# LSM4 = target: T1, LSM4 (UniProt Q9Y4Z0)
# T1 sequence: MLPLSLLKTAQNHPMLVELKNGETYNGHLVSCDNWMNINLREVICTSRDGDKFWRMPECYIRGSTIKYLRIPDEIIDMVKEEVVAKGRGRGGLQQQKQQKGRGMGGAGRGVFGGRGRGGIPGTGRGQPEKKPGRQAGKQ
# LSM8 (human) = system: LSM8 (human)
# LST1 (human) = system: LST1 (human)
# LTB (human) = system: LTB (human)
# LXN (human) = system: LXN (human)
# LY6E (human) = system: LY6E (human)
# LY6G6C (human) = system: LY6G6C (human)
# LYG2 = target: T2, LYG2 (UniProt Q86SG7)
# T2 sequence: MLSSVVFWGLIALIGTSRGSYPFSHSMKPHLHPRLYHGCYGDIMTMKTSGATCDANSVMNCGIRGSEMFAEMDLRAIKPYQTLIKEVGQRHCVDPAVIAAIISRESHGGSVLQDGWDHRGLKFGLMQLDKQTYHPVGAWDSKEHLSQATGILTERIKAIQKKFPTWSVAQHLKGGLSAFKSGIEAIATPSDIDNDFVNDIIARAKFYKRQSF
# LYNX1 (human) = system: LYNX1 (human)
# LYPD1 (human) = system: LYPD1 (human)
sequence,measurement,setting,value
GGGAGGCTGAGGCAGG [G4-1 biotinylated (PQS2)],binding signal,LRBA (human),-0.299 z-score and -0.289 z-score
same,binding signal,LRP10 (human),-0.328 z-score
same,binding signal,LRRC1 (human),-0.324 z-score
same,binding signal,LRRC14 (human),-0.315 z-score
same,binding signal,LRRC28,-0.297 z-score
same,binding signal,LRRC32 (human),-0.31 z-score
same,binding signal,LRRC3B (human),-0.315 z-score
same,binding signal,LRRIQ2 (human),-0.33 z-score
same,binding signal,LSM12,-0.307 z-score
same,binding signal,LSM14B (human),-0.307 z-score
same,binding signal,LSM4,3.24 z-score
same,binding signal,LSM8 (human),-0.343 z-score and -0.3 z-score
same,binding signal,LST1 (human),-0.275 z-score
same,binding signal,LTB (human),-0.347 z-score
same,binding signal,LXN (human),-0.343 z-score
same,binding signal,LY6E (human),-0.339 z-score
same,binding signal,LY6G6C (human),-0.327 z-score
same,binding signal,LYG2,-0.245 z-score
same,binding signal,LYNX1 (human),-0.335 z-score
same,binding signal,LYPD1 (human),-0.338 z-score

# 2 entries from above in a different format.
sequence	measurement	setting	value
GGGAGGCTGAGGCAGG [G4-1 biotinylated (PQS2)]	binding signal	LRP10 (human)	-0.328 z-score
same	binding signal	LRRC32 (human)	-0.31 z-score
